Assay results from paper PMC3928049.

Experiments:
Test in all cases: pull-down; 6 ug resin-bound MBP fusion protein added to 250 ug total protein extract of DEX-induced transgenic Arabidopsis seedlings, 1 h at 4 C with rotation; 50 mM Tris-HCl pH 7.4, 150 mM NaCl, 10% glycerol, 0.2% NP-40, MG132 and protease inhibitors; anti-HA immunoblot; only the target purified
[1] = target: T1, MBP-JAZ8 (Arabidopsis) (UniProt Q8LBM2)
T1 sequence: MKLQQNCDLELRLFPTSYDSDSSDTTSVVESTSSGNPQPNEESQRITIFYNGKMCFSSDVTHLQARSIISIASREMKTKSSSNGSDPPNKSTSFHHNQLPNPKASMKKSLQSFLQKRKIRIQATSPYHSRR

[2] = target: T2, MBP-JAZ3 (Arabidopsis) (UniProt Q9LVI4)
T2 sequence: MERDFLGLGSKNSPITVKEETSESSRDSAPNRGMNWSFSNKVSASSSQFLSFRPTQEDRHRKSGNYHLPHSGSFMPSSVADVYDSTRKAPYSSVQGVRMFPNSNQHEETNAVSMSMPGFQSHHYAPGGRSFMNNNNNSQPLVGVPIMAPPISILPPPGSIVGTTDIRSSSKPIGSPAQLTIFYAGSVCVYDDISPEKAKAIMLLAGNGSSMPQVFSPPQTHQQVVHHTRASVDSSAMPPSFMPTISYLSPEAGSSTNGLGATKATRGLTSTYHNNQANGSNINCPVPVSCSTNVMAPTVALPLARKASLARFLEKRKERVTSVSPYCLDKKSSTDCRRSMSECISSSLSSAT

[3] = target: T3, MBP-JAZ4 (Arabidopsis) (UniProt Q58G47)
T3 sequence: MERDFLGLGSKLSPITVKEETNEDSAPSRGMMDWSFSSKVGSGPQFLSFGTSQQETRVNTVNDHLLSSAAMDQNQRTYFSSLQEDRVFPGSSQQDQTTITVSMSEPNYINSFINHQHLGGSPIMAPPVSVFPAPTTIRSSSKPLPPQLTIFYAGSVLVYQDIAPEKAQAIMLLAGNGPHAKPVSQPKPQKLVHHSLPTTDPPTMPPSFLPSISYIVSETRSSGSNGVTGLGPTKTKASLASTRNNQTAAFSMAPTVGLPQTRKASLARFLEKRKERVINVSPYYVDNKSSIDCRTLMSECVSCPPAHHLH

[4] = target: T4, MBP-JAZ10 (Arabidopsis) (UniProt Q93ZM9)
T4 sequence: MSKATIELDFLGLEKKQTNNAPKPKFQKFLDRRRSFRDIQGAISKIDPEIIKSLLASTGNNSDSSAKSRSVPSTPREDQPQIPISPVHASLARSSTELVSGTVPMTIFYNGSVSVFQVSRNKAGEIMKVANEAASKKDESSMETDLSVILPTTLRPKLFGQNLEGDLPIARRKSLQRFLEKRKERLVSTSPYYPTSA

[5] = target: T5, MBP-JAZ11 (Arabidopsis) (UniProt Q9M246)
T5 sequence: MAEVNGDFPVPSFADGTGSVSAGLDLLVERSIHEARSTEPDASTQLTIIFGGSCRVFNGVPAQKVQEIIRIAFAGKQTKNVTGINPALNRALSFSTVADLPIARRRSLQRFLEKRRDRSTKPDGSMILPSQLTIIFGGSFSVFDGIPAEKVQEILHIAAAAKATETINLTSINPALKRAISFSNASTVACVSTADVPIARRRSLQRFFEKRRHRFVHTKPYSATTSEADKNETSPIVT

[6] = target: T6, MBP-JAZ7 (Arabidopsis) (UniProt O64687)
T6 sequence: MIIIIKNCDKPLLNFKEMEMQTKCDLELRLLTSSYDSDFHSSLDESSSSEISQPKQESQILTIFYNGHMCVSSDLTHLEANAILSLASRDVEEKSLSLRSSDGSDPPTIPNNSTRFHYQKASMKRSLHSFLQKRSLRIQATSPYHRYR

[7] = target: T7, MBP-JAZ9 (Arabidopsis) (UniProt Q8W4J8)
T7 sequence: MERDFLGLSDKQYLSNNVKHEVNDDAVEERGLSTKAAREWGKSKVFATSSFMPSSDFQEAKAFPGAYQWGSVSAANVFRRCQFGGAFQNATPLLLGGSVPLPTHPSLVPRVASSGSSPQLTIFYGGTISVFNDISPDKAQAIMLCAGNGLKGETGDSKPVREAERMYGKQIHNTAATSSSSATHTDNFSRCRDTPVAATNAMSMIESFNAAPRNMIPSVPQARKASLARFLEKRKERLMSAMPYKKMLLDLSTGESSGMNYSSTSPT

Measured: binding

HopX1^C179A-HA (Pseudomonas syringae pv. tabaci 11528)
no binding: all assays above

No constants are given. Whether binding was seen depends on the method and setting. Binding seen in cells or lysates may run through a third protein. Tags and fused reporters may be left off the sequences shown.
